These are yes or no findings as the source states them, for the method shown. Some binding calls cover weakened binding; strength is not graded here.
Molecular target: T1, cathepsin G (UniProt P08311)
T1 sequence (looked up): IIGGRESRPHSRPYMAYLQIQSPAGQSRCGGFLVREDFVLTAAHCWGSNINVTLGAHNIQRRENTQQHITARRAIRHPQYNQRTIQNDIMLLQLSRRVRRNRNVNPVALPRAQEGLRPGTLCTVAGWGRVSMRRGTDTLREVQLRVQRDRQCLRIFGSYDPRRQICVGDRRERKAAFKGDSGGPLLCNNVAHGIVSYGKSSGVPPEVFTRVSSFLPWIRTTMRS
Assay: BIAcore, immobilized Phe72 mutein, monoS fractions of CHAPS-solubilized U937 membranes; identity by comparison of profiles

B1: SLPI mutein Phe 72 (other, human, UniProt P03973 26-132, looked up)
chain: SGKSFKAGVCPPKKSAQCLRYKKPECQSDWQCPGKKRCCPDTCGIKCLDPVDTPNPTRRKPGKCPVTYGQCFMLNPPNFCEMDGQCKRDLKCCMGMCGKSCVSPVKA
notes: mature; also called Phe72 mutein
binding: binds
